## Screening data, single-dose tests

By UniProt entry, the sequences of proteins in these tests, tags left out. Residues count along the entry.
UniProt A4I591, 1-473: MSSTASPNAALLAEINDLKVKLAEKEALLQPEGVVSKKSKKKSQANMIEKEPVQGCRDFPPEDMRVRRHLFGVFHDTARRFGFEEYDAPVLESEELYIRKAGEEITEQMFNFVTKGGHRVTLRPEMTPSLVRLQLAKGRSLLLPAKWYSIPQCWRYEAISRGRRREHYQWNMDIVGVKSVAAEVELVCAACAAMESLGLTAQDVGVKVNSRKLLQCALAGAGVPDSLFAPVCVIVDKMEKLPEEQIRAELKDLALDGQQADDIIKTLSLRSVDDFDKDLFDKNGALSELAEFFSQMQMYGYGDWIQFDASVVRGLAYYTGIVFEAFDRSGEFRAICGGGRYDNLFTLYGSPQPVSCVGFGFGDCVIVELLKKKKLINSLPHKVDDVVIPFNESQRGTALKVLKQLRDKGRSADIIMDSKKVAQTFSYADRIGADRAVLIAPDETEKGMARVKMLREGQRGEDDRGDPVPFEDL

Data taken from ChEMBL document CHEMBL3988442, “University of Dundee, Small-Polar-MMV Screening Library” (2021).

LiHisRS: 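Histidine-tRNA ligase, Leishmania infantum (UniProt A4I591). Enzyme assay of histidyl-tRNA synthetase; the read-out is not stated. Tested at 30 µM. Direction is inferred from retests: higher values go with stronger inhibition. The assay is labelled LdHisRS but filed under L. infantum. Of about 69,000 compounds tested this way, about 410 (0.6%) reached 50% or more in at least one test.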
Toxoplasma: 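Assay of Toxoplasma gondii numbers, read through their beta-galactosidase reporter with a colour substrate. Tested at 10 µM. Higher reads as fewer parasites (inferred from which compounds were picked for retests). Size under these conditions: about 67,000 compounds, about 260 of them at 50% or above in at least one test.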

The filed quantity is “Percent Effect” (%).
The controls that fix the scale are not given in the record; negative values are as filed.
This is an unselected part of the compounds tested.

CS(=O)(=O)N1C[C@@H]2COC[C@H](C(=O)Nc3cnccn3)[C@@H]2C1 read LiHisRS: 29.63%.
CN1CCN(CC2CC2)C(=O)C12CCN(C(=O)CC(F)(F)F)CC2 read LiHisRS: 11.54%.
Cn1cccc1C(=O)N1CCC2(CC1)CN(c1cncnc1)C(=O)CO2 read LiHisRS: -108.8%; Toxoplasma: -0.05546%.
O=C(O)C(F)(F)F.[H][C@@]12CN(C3CCOCC3)C[C@@]1([H])N(Cc1cccc(F)c1)C(=O)CO2 read Toxoplasma: 17.83%.
O=C1COC2(CCN(Cc3cccs3)CC2)CN1c1cncnc1 read LiHisRS: 11.7%.
CC(C)n1nc(CN(C)C)c2c1CN(CC1CC1)CC2 read LiHisRS: 22.41%.
CCN(Cc1c(F)cccc1F)C(=O)c1ccncc1O read LiHisRS: 8.219%; Toxoplasma: 13.1%.
O=C(O)C(F)(F)F.O=C(O)C(F)(F)F.[H][C@@]12CCN(Cc3cccnc3)[C@]1([H])CC[C@H](COCC1CC1)O2 read Toxoplasma: 3.161%.
CC(C)c1nccn1C(C)C(=O)N1CCN(c2ccccc2Cl)CC1 (stereo unspecified) read LiHisRS: 19.78%; Toxoplasma: 2.16%.
CC(C)c1cc(-c2cnn(C)c2C2CC2)c(C#N)c(N)n1 read LiHisRS: 11.39%; Toxoplasma: 21.06%.
CCC(C)(C)C(=O)Nc1ccc2ccn(CC(=O)NC)c2c1 read LiHisRS: 4.167%; Toxoplasma: 15.34%.
OC(c1ccccn1)C1CCN(Cc2cc3n(n2)CCNC3)CC1 (stereo unspecified) read LiHisRS: 17.95%; Toxoplasma: 10.51%.
COc1ccc(C)cc1-c1[nH]c2ccccc2c1C(=O)O read LiHisRS: -42.76%; Toxoplasma: 55.01%.
CCC1=NN2C(=N)/C(=C\c3cccn3-c3cccc(Cl)c3)C(=O)N=C2S1 read LiHisRS: 15.07%; Toxoplasma: 16.37%.
Cc1noc(C)c1CNC(=O)N1CCC(CN2CCC(C)CC2)CC1 read LiHisRS: 12.9%; Toxoplasma: 11.61%.
CCCc1cc(=O)[nH]c2nnc(SCC(=O)NC(C)(C)C)n12 read LiHisRS: 9.917%; Toxoplasma: -21.76%.
CC(C)N1CCOCC2(CCCN(C(=O)c3cncn3C)C2)C1 (stereo unspecified) read LiHisRS: 0%.
Cc1nc(CCN(C)C(=O)CCNC(=O)c2ccccc2F)no1 read LiHisRS: -6%; Toxoplasma: -4.468%.
CC(C)N1CC(n2ccnc2-c2nccn2C)CC1=O (stereo unspecified) read LiHisRS: 14.75%; Toxoplasma: -7.468%.
O=C(O)C(F)(F)F.O=C(O)C(F)(F)F.[H][C@@]12CCN(c3ncccn3)[C@]1([H])CC[C@H](C(=O)NC1CCN(C)CC1)O2 read Toxoplasma: 1.016%.
NC(=O)CCn1ccc(NC(=O)c2ccc(Br)o2)n1 read LiHisRS: 17.74%; Toxoplasma: -16.38%.
CCCc1cc(CNC(=O)Cc2cc(C)no2)on1 read LiHisRS: 19.35%; Toxoplasma: -5.89%.
COCCNC(=O)CN(C)CCn1nc2ccccn2c1=O read LiHisRS: 5.319%; Toxoplasma: -5.091%.
COc1ncc(C2(O)CCN(Cc3cccs3)CC2)c(OC)n1 read LiHisRS: 17.14%.
Cc1noc(C)c1CNC[C@@]1(COc2cccnc2)C[C@@H](O)[C@@H](O)C1.Cl.Cl read Toxoplasma: 1.934%.
Cc1cc(C)nc(N2CC=C[C@@H]2C(=O)NCc2ccc3c(c2)OCO3)n1 read LiHisRS: 8.451%.
O=C(CN1CCCCC1C1OCCO1)Nc1ccc(F)c(F)c1 (stereo unspecified) read LiHisRS: 11.54%; Toxoplasma: -2.014%.
CCC(=O)N1CCCC1c1ccsc1 (stereo unspecified) read LiHisRS: 6.173%; Toxoplasma: -0.3661%.
CCCC(NC(=O)c1cc(C)c(F)cc1F)c1nnn[nH]1 (stereo unspecified) read LiHisRS: 24.11%; Toxoplasma: 9.535%.
O=C(Cn1nc(-c2ccc(F)cc2)oc1=O)NCC1CCCO1 (stereo unspecified) read LiHisRS: 18.28%; Toxoplasma: -5.571%.
CCN(CC1CCCO1)C(=O)Nc1cccc(Cl)c1OC (stereo unspecified) read LiHisRS: 16.07%; Toxoplasma: -25.31%.
CC/C=C(/C)C(=O)N1CSCC1C(=O)NC1=NCCS1 (stereo unspecified) read LiHisRS: 16.44%; Toxoplasma: -9.422%.
CCc1noc(CC)c1CC(=O)N1CCN(C(C#N)C(C)C)CC1 (stereo unspecified) read LiHisRS: 9.524%; Toxoplasma: 20.94%.
[H][C@@]12CN(c3nnc(C)s3)C[C@H](C(=O)NCc3ccco3)[C@]1([H])CCO2 read Toxoplasma: -4.853%.
CN1C(=O)Cc2cc(-c3csc(CCN4CCOC4=O)n3)ccc21 read LiHisRS: 14.29%; Toxoplasma: -18.67%.
c1ccc(C(CNc2ncccn2)N2CCOCC2)nc1 (stereo unspecified) read LiHisRS: 12.82%; Toxoplasma: -4.253%.
CN(C)Cc1nnn2c1CN(Cc1cccnc1)CCC2 read LiHisRS: 12.35%.
c1ccc(OCCN2CCCCC2Cn2cncn2)cc1 (stereo unspecified) read LiHisRS: 21.93%; Toxoplasma: -16.11%.
O=C(O)C(F)(F)F.O=C(O)C(F)(F)F.c1ccc(N2CCC3(COCCN(Cc4cccs4)C3)C2)nc1 (stereo unspecified) read Toxoplasma: -28.27%.
Cc1ccc2c(c1)C(N(C)C)CC21CCN(CCO)CC1.O=C(O)C(F)(F)F.O=C(O)C(F)(F)F (stereo unspecified) read Toxoplasma: -1.913%.
Cc1ccc(S(=O)(=O)c2ncccc2CN2CCN(CCO)CC2)cc1 read LiHisRS: 15.79%; Toxoplasma: 15.11%.
NC(=O)Nc1cccc(C(=O)N(Cc2ccc(F)cc2)C2CC2)c1 read LiHisRS: 14.29%; Toxoplasma: 3.202%.
CC(=O)N1Cc2ccccc2CC1C(=O)Nc1ccc(C)cn1 (stereo unspecified) read LiHisRS: 20%; Toxoplasma: 1.406%.
CS(=O)(=O)NC1CCCN(C(=O)c2cccnc2)C1 (stereo unspecified) read LiHisRS: 11.5%; Toxoplasma: -3.733%.
Cc1ccc(-c2ccnc(N(C)CC3CCCO3)n2)c(C)n1 (stereo unspecified) read LiHisRS: 15.96%; Toxoplasma: -0.363%.
CN1[C@H]2CC[C@@H]1CN(c1cc(Sc3cccs3)nc(N)n1)CC2 read LiHisRS: 27.87%.

5 of the entries, repeated:

With O=C1COC2(CCN(Cc3cccs3)CC2)CN1c1cncnc1 the screen gave LiHisRS: 11.7%.
With CCCC(NC(=O)c1cc(C)c(F)cc1F)c1nnn[nH]1 (stereo unspecified) the screen gave LiHisRS: 24.11%; Toxoplasma: 9.535%.
With Cc1ccc(-c2ccnc(N(C)CC3CCCO3)n2)c(C)n1 (stereo unspecified) the screen gave LiHisRS: 15.96%; Toxoplasma: -0.363%.
With CCN(Cc1c(F)cccc1F)C(=O)c1ccncc1O the screen gave LiHisRS: 8.219%; Toxoplasma: 13.1%.
With CC(C)n1nc(CN(C)C)c2c1CN(CC1CC1)CC2 the screen gave LiHisRS: 22.41%.